Results published in article PMC7819943, “Rice protein-binding microarrays: a tool to detect cis-acting elements near promoter regions in rice”.
The other results are listed elsewhere or left out.

The chains behind the UniProt entries cited, without tags or fusion partners.
UniProt Q0JBA9, entry or part of it: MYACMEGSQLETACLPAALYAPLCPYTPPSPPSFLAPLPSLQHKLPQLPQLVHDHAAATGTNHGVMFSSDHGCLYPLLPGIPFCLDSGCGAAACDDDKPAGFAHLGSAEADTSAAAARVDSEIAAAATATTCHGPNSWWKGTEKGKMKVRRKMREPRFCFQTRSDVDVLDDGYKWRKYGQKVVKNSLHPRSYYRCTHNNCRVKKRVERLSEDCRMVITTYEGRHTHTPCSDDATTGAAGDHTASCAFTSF

Biological target: OsWRKY34 (Oryza sativa, UniProt Q0JBA9 1-250)
Assay: protein-binding microarray (RPBM); PBS, 2% BSA, 51.3 ng/ul salmon testes DNA, 50 uM zinc acetate, 200 nM TF, 25 C, 1 h; high values mean tight binding
Details: protein: recombinant; tags: N-terminal polyhistidine and DsRed monomer fusion (pET32a); label: CyDye5-dUTP incorporated in the synthesized complementary strand; 3' TTTTT single-stranded linker to array surface; dsDNA, one strand shown
In short: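 Polyhistidine-tagged DsRed fusions of transcription factors, joined at the N-terminus, were expressed in E. coli BL21-CodonPlus and isolated on Ni–NTA. They were incubated at 200 nM for 1 h at 25 °C on a custom Agilent array, double-stranded and BSA-blocked, in PBS with 2% BSA, salmon testes DNA and 50 µM zinc acetate. The binding signal is per-feature fluorescence intensity (arbitrary units) read on an Axon 4000B scanner after washing.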

Sequence	binding signal
CTTATCCTTTTCATTTTCATTTTCGCTGAATTTCTGTACACGGAGTCACCTAGTGCAG	10700 fluorescence intensity (a.u.)
GGTTTAATCTGTTTGTCGTACTGCCATCATAAAGCCTAAGCGGAGTCACCTAGTGCAG	10600 fluorescence intensity (a.u.)
AATTTACTTTTGTCTCGTGTTATCCTTTTGTTTTGTTTTACGGAGTCACCTAGTGCAG	12200 fluorescence intensity (a.u.)
CTCAGCTCCACCGTTTCATTTCGTTTTTTTTTTCTCTCATCGGAGTCACCTAGTGCAG	13900 fluorescence intensity (a.u.)
TTTTTTTTTCTTAAATTCCTCCTGATCTCGTTCGGAACTTCGGAGTCACCTAGTGCAG	9970 fluorescence intensity (a.u.)
CTCTCCTCCACGCCCACCTCACCTGCCCCTGCGCCTCCGCCGGAGTCACCTAGTGCAG	8610 fluorescence intensity (a.u.)
TCTACAGCCTCTACACTCCGTCCTGCACCGCCGCGCTCAACGGAGTCACCTAGTGCAG	9240 fluorescence intensity (a.u.)
GTCGCTGGTCCTATGGTCCAATTGTATTTTCAGACAGTCCCGGAGTCACCTAGTGCAG	9940 fluorescence intensity (a.u.)
CCACGCCTCCACCTCCGCCTCATTTGCTCCAGTTCCCGGACGGAGTCACCTAGTGCAG	9630 fluorescence intensity (a.u.)
AAACTGAAGATGTTTTTGTCGGTATTTGAGTATGTCATCCCGGAGTCACCTAGTGCAG	8120 fluorescence intensity (a.u.)
ATCGCCTCCACCACCACGGTTCGGCTCGGCTCGGCTACTCCGGAGTCACCTAGTGCAG	8110 fluorescence intensity (a.u.)
CTAAAAACTTGCTATATTGTTAACACTACTTGTTGTAAGTCGGAGTCACCTAGTGCAG	8290 fluorescence intensity (a.u.)
TTTCCTCCTGGCCTTTCTTGGCCTCTGCATTTGCTCACCTCGGAGTCACCTAGTGCAG	12000 fluorescence intensity (a.u.)
CCACTTTGGCTATTCACCCTTTATTTATGTATAAAAAATACGGAGTCACCTAGTGCAG	8120 fluorescence intensity (a.u.)
TCTATTTCGTCTCCGTCCTCTTTGGGCTGTGACATGTATACGGAGTCACCTAGTGCAG	8250 fluorescence intensity (a.u.)
ACTTTACTACCAAATGTTAACTCGTGTTTTTTTGCCCATACGGAGTCACCTAGTGCAG	8110 fluorescence intensity (a.u.)
TACTCTAACCCTCATCTCCTCTTTGCATTTCCGCCTCGTCCGGAGTCACCTAGTGCAG	9230 fluorescence intensity (a.u.)
TGGTTGTTGTTATTATTGACTTGGTGTTGAATACCTTTCACGGAGTCACCTAGTGCAG	8880 fluorescence intensity (a.u.)
TACCGTACTCCTATCTTTTTGAAACAGCCTCTTTTTTTGACGGAGTCACCTAGTGCAG	8340 fluorescence intensity (a.u.)
TAAGACGAGTGGTCAAACGTTGGTTAAAAAGTCAACGGTGCGGAGTCACCTAGTGCAG	14800 fluorescence intensity (a.u.)
ACCTTAACTCGAAACCGATCTCGTTTACCACCTATCCAACCGGAGTCACCTAGTGCAG	8860 fluorescence intensity (a.u.)

Sequence	binding signal
CGGGGTTGTCTTCACCTGCGACGCGGTGGTGCACGGTGGGCGGAGTCACCTAGTGCAG	8990 fluorescence intensity (a.u.)
CTCGATCAGTTTGTTTCTCTTCCCTTAAATACCAATTAAACGGAGTCACCTAGTGCAG	8490 fluorescence intensity (a.u.)
TCACCGTCTCCCGCGACTACCGCGACATCCTCGCCTGCGGCGGAGTCACCTAGTGCAG	10400 fluorescence intensity (a.u.)
GCCGTTGACTTTTTATTACATGTTTGACCGTTCGTCTTATCGGAGTCACCTAGTGCAG	62900 fluorescence intensity (a.u.)
CGCCTCAATCACCAAATCGATTTCACATCATTCGTCTCTTCGGAGTCACCTAGTGCAG	12100 fluorescence intensity (a.u.)
ACGGTAGGGGCATGGAAGGGATCAAATTGAAATTTCAGGGCGGAGTCACCTAGTGCAG	8580 fluorescence intensity (a.u.)
TAGATATTTTCTATAATGTTTTATAACTATATTTTGATGTCGGAGTCACCTAGTGCAG	8150 fluorescence intensity (a.u.)
TCTTTTGATTTGGTATTCAGTTCCTCTTTCTTTCCGTTGTCGGAGTCACCTAGTGCAG	12200 fluorescence intensity (a.u.)
ACTAGATCCATCATGGCTACTTTTTGACGTTGTTACTGCGCGGAGTCACCTAGTGCAG	9210 fluorescence intensity (a.u.)
CAAAGCATCACACACACACACACACCAAACTAATCAATTTCGGAGTCACCTAGTGCAG	8340 fluorescence intensity (a.u.)
GAATCTGCCTCCGAAATTCATCGGCTCGATCTGTTTTAACCGGAGTCACCTAGTGCAG	10900 fluorescence intensity (a.u.)
TGGATTTGGCGGCGGCGGCGGCTTCGAGGGGAGGGGCTCTCGGAGTCACCTAGTGCAG	15300 fluorescence intensity (a.u.)
TGTCATGCCAGGTTCTATCACATTGTCTAGTTTGCTTCCTCGGAGTCACCTAGTGCAG	10900 fluorescence intensity (a.u.)
ATTGTTGTTGTTGTGTATTAATCTCGCGCTTCTGCTATTACGGAGTCACCTAGTGCAG	15500 fluorescence intensity (a.u.)
AGTCTTGGGTGTAAACCTATCCACCAATTTTCGAATTTAGCGGAGTCACCTAGTGCAG	8220 fluorescence intensity (a.u.)
GGCGGCGGTGATTCGGGGATGCGGCGCGGCGGGGAGGAGGCGGAGTCACCTAGTGCAG	10100 fluorescence intensity (a.u.)
GCCGTGCCGCCACGTTCCACGCCAACCTCGCCGGCCGCGCCGGAGTCACCTAGTGCAG	10100 fluorescence intensity (a.u.)
GCTAGTTAATTTGCTCGCGCGAGCTAGGACCCTCCGTGGTCGGAGTCACCTAGTGCAG	8480 fluorescence intensity (a.u.)
TCCACCCCGGCCCGCGCCCGCGCCCTCTCGAGTTCCCACACGGAGTCACCTAGTGCAG	10900 fluorescence intensity (a.u.)
GATGTGTTACGTCGTATGCTGTGGTTGACCGATGGCCCTGCGGAGTCACCTAGTGCAG	10100 fluorescence intensity (a.u.)
ATTTCCTTAACGTATGCCGAACACATCCATATACGCGTGACGGAGTCACCTAGTGCAG	9220 fluorescence intensity (a.u.)

Sequence	binding signal
GATCTTGTGCACCTTACAAATTACATTGCCGACCATAAAACGGAGTCACCTAGTGCAG	9320 fluorescence intensity (a.u.)
AGATCCCGTGTTTAATCCCCAGCACGTTCACGGTTTCTCGCGGAGTCACCTAGTGCAG	11700 fluorescence intensity (a.u.)
TTCTCCTCTTCTCGCGCGGCTCGTTATATTCTCGTCATCACGGAGTCACCTAGTGCAG	12000 fluorescence intensity (a.u.)
CCTCTCAGCTCCGCCGCCGCTGCCTCCTCCTCCTCCGTTCCGGAGTCACCTAGTGCAG	9070 fluorescence intensity (a.u.)
GTTCTAACCATTCATTCCCTCTTTTCTATTTAATCCTAACCGGAGTCACCTAGTGCAG	9230 fluorescence intensity (a.u.)
GATGCATACCAAAAATTTTCATGCTTTACCGTCTGACAACCGGAGTCACCTAGTGCAG	8220 fluorescence intensity (a.u.)
TCTGGACTTCCACGTCACGTCCACAATTCCCATTTCACACCGGAGTCACCTAGTGCAG	11700 fluorescence intensity (a.u.)
AGTGTTCTAGACTTACGGGTTACGGTTTTTTTTGTTAGAGCGGAGTCACCTAGTGCAG	8090 fluorescence intensity (a.u.)
TAATGGCCTCTTCTTCTTCTTCTTCTTCTAGGTTCTCTGACGGAGTCACCTAGTGCAG	8700 fluorescence intensity (a.u.)
TTTATGTACGGTGATATGTGTACGTTTGCTTCTTTCCTGTCGGAGTCACCTAGTGCAG	10500 fluorescence intensity (a.u.)
CTCCTAACGCCATCCAATCTCTCTTCTCCCCGTCTCTTTCCGGAGTCACCTAGTGCAG	9930 fluorescence intensity (a.u.)
TGATGGAGCAGATCATTTCTTTGTTGTTCCACATGATTTTCGGAGTCACCTAGTGCAG	10000 fluorescence intensity (a.u.)
CCTTCCGTCGCAGCCAGCATTCTTCTCCTCTCTCCTCTCACGGAGTCACCTAGTGCAG	8220 fluorescence intensity (a.u.)
AATTCCTGCATTACTCGTGTTTTTTTCAAATGTCTTTTAACGGAGTCACCTAGTGCAG	11700 fluorescence intensity (a.u.)
CTGACTGTACTTTTCCCTTAAGATTGGTCAAATTTGAGTCCGGAGTCACCTAGTGCAG	10900 fluorescence intensity (a.u.)
TGTTGTGTGGTGTGAACGAGTCAGTCAATGCAGTCAACATCGGAGTCACCTAGTGCAG	9410 fluorescence intensity (a.u.)
TTTATTCCGAATTATAACTGGTTTATTGAGCAAGCGCTTTCGGAGTCACCTAGTGCAG	11300 fluorescence intensity (a.u.)
ATAAGACGAACGGTTAAAAATGTGCCAAAAAGTCAACGGCCGGAGTCACCTAGTGCAG	9640 fluorescence intensity (a.u.)
TGTCTAGCTTACCTTGCTGCTGATTGCATGTCTAAAATGTCGGAGTCACCTAGTGCAG	9310 fluorescence intensity (a.u.)
GCCGGAGAAGGGGAAGGGGCTCTCTCTGGCGTGGGGCGTGCGGAGTCACCTAGTGCAG	11100 fluorescence intensity (a.u.)
CAATTCATTATGCATATTGTCGCACATTGTTGTTTTAGTCCGGAGTCACCTAGTGCAG	13000 fluorescence intensity (a.u.)

Sequence	binding signal
AGCTTATTTTTACCCGATGTACTTGCATGCTTAATTGATTCGGAGTCACCTAGTGCAG	11300 fluorescence intensity (a.u.)
TTTATCGCTTTGACTGTTCTACATCTTGCCTCGCCGTGCACGGAGTCACCTAGTGCAG	9040 fluorescence intensity (a.u.)
CGTTTCTCGTCGCGTCACGCTATCACCCTTGACATCATCACGGAGTCACCTAGTGCAG	14500 fluorescence intensity (a.u.)
TAGATTTGTTTTTTTATTTCTCCATGTATAAGTAGAGTTTCGGAGTCACCTAGTGCAG	9140 fluorescence intensity (a.u.)
ATATATGTTCTCTTAGTGTCTTTATTTTTAATATTTTTAACGGAGTCACCTAGTGCAG	8530 fluorescence intensity (a.u.)
AGAGTACTTTTGGGGTTACAAGTCAACATGAGTCAACACTCGGAGTCACCTAGTGCAG	8320 fluorescence intensity (a.u.)
TGGTTGGTTCTTGTGTGTTCCTAAGCATGAAAAAAAATATCGGAGTCACCTAGTGCAG	12600 fluorescence intensity (a.u.)
CCAACTCTGCGATTAGCGCTTCTCAATCCCACCTCGAGAACGGAGTCACCTAGTGCAG	8470 fluorescence intensity (a.u.)
ACTTATTCATTTTCTCTTATGCTCATCTGTACTTGGGCCGCGGAGTCACCTAGTGCAG	8150 fluorescence intensity (a.u.)
ATCTCCCCTCCCGCGAGCAGCGGCGGCCGGCGACCTGCTGCGGAGTCACCTAGTGCAG	13000 fluorescence intensity (a.u.)
TTGGTTTGCACTGGTTTTGATAGTTGAGGGACCTGTTGTACGGAGTCACCTAGTGCAG	8090 fluorescence intensity (a.u.)
AGCGTCTGGTATATCGCCTCGTTACAGCTTTATGTGGGTCCGGAGTCACCTAGTGCAG	8480 fluorescence intensity (a.u.)
ACAACCACCTGGCCATGACATCGATCATACTCTAAAATCCCGGAGTCACCTAGTGCAG	8660 fluorescence intensity (a.u.)
CCCACCTTCTTACCGTAGCCCGCCCCTCGCGGCGTATAAACGGAGTCACCTAGTGCAG	9440 fluorescence intensity (a.u.)
TCTTCTTTCCTTTCTTTATTTCTCCCTTGCCTTGTTCGGCCGGAGTCACCTAGTGCAG	9530 fluorescence intensity (a.u.)
TCGAACTAGTCACTTACTCATTTGATTCTCTGTTAGTCTGCGGAGTCACCTAGTGCAG	9250 fluorescence intensity (a.u.)
GAAATAGAGATGTGGAGCCCCTGTTCACCAAACTTTCCATCGGAGTCACCTAGTGCAG	8100 fluorescence intensity (a.u.)
GTCCACGCGGCGCGCCGCGGTTGACCCGCGTTGCCTCTCGCGGAGTCACCTAGTGCAG	8590 fluorescence intensity (a.u.)
ATTCCTTTCTTCTCTCTATCCTCTCTGGCCCTGCGCGTATCGGAGTCACCTAGTGCAG	8110 fluorescence intensity (a.u.)
AACTCTGTCTCTCCTCTGCCTCAGCTCTGTTTCTCTTCGTCGGAGTCACCTAGTGCAG	14200 fluorescence intensity (a.u.)
AGATCACGTGGGCCGCACGTTGCGTTGCAGTCCAATTTCACGGAGTCACCTAGTGCAG	8600 fluorescence intensity (a.u.)

4 entries from above in a different format:
Sequence | binding signal
GATGTGTTACGTCGTATGCTGTGGTTGACCGATGGCCCTGCGGAGTCACCTAGTGCAG | 10100 fluorescence intensity (a.u.)
ATTTCCTTAACGTATGCCGAACACATCCATATACGCGTGACGGAGTCACCTAGTGCAG | 9220 fluorescence intensity (a.u.)
GATCTTGTGCACCTTACAAATTACATTGCCGACCATAAAACGGAGTCACCTAGTGCAG | 9320 fluorescence intensity (a.u.)
AGATCCCGTGTTTAATCCCCAGCACGTTCACGGTTTCTCGCGGAGTCACCTAGTGCAG | 11700 fluorescence intensity (a.u.)
